Literature values as cited in patent publication US20150072003A1, “FORMULATIONS” (Hoffmann-La Roche Inc., priority 2012, published 2015).

Details: general statement, no test described

In the case of CC(C)c1c(C(=O)Nc2ccccc2)c(-c2ccccc2)c(-c2ccc(F)cc2)n1CC[C@@H](O)C[C@@H](O)CC(=O)O (relative stereo) [Atorvastatin, [R-(R*,R*)]-2-(4-fluorophenyl)-β,δ-dihydroxy-5-(1-methylethyl)-3-phenyl-4-[(phenylamino)carbonyl]-1H-pyrrole-1-heptanoic acid], the stability is listed as “unstable, as it is susceptible to heat, moisture, low pH environment and light”.
